The values below come from PubChem BioAssay AID2685 (National Center for Advancing Translational Sciences (NCATS), 2010).

For orientation: AC50 means the midpoint of the concentration-response curve, whichever way the signal moves. Read a high AC50 as activity only at high concentration.

This assay can be described thus: qHTS Assay for Lipid Storage Modulators in Drosophila S3 Cells.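 For cell number change: cells counted by Cell Tracker Red CMTPX staining in the red channel.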 The note with it: BODIPY lipid droplet fluorescence, 18-24 h; for cell number change: measured here: cell count max response, cells fed with added oleic acid. The gist of the method: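 Drosophila S3 cells loaded with oleic acid (400 uM, as added) and compounds at several concentrations; lipid droplets imaged by 488-nm laser-scanning cytometry, 500–530 nm intensity and object ratio to cell channel. Percent activity normalized to 20 uM Triacsin C.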
Background: qHTS replaces the single test concentration by a dilution series.

Where [1] appears, read: measured here: lipid fluorescence (Fed channel) AC50, cells fed with added oleic acid.
The mark [2] stands for this setting: measured here: cell number channel AC50, cells fed with added oleic acid.

Each structure is given as a SMILES string. The list shows a part of the results. Shown are side measurements of this screen, not its main read-out; they come without a call. Compounds called inactive in the main read-out are mostly missing here. The note in brackets gives the kind of curve behind each potency; many fits are weak.

Take `CC(C)(C)c1cc(-n2ccnc2)n2ncc(-c3ccc(Cl)cc3)c2n1`: the cell number change worked out at 21%. Under setting [1], the AC50 was 0.517 µM [rising, partial curve].
On to `CCOC(=O)C(C(=O)OCC)C(C(=O)OCC)N1CCOCC1` (stereo not drawn), for which the cell number change amounted to 5.27%. Besides, the AC50 under setting [1] was 29.1 µM [falling, single point].
As to `O=C(NCc1ccccc1)c1nc[nH]c1C(=O)N1CCc2ccccc2C1`, the cell number change came out at 11.9%. The half-maximal activity concentration (AC50) under setting [2] was 6.51 µM [falling, single point]. Also, under setting [1], the AC50 is 4.11 µM [rising, single point].
As for `CCn1nc(C)c(/C=N/NC(=O)Cc2ccc(Cl)cc2)c1C`, the concentration at half-maximal activity (AC50) under setting [1] was 2.31 µM [rising, single point].
Regarding `CCc1nnc(SCc2ccc(OC)c(Br)c2)n1N`, the cell number change was -44.5%. For the same molecule, the AC50 under setting [2] was 29.1 µM [falling, single point]. The AC50 under setting [1] is 23.1 µM [falling, partial curve, poor fit].
Take `CC(OC(=O)Cc1c(F)cccc1Cl)C(=O)NC1(C#N)CCCCC1` (stereo not drawn): the cell number change is 2.55%. For the same molecule, the AC50 under setting [1] is 23.1 µM [falling, single point].
Regarding `COc1ccc2c(c1)N(C)C(=O)CC(c1ccccc1)=N2`, the cell number change was found to be 10.1%. Under setting [1], the half-maximal activity concentration (AC50) is 0.651 µM [rising, partial curve].
For the molecule `CCOc1ccc(C(C)=O)cc1COC(=O)CN1C(=O)NC2(CCCC2)C1=O`, the cell number change was -17.5%. Moreover, the AC50 under setting [1] is 20.6 µM [falling, single point].
For the molecule `Cn1c(SCC(=O)Nc2ccc(Cl)cc2)nnc1C1CC1`, the cell number change was -4.58%. For the same molecule, the concentration at half-maximal activity (AC50) under setting [1] was 0.0651 µM [falling, full curve].
In the case of `CC(C)(C)CC(C)(C)c1ccc(OCCOCC[N+](C)(C)Cc2ccccc2)cc1`, the cell number change was -82.9%. Besides, the AC50 under setting [2] is 16.4 µM [falling, partial curve].
For the molecule `Cc1ccc([C@H]2C(C#N)=C(N)Oc3cc(C)oc(=O)c32)o1`, the cell number change is -0.221%. For the same molecule, the concentration at half-maximal activity (AC50) under setting [1] is 0.517 µM [rising, single point].
Take `CN(C)c1cccc(C(=O)N(Cc2ccccc2)Cc2ccccc2)c1`: the cell number change was determined as 7.02%. For the same molecule, under setting [1], the AC50 was 6.51 µM [falling, partial curve].
Regarding `O=S(=O)(N/N=C\C=C\c1ccccc1)c1ccc(Br)cc1`, the cell number change was -56%. The AC50 under setting [2] was 23.1 µM [falling, partial curve]. Further, under setting [1], the half-maximal activity concentration (AC50) was 23.1 µM [falling, partial curve].
Consider `CC(C)(C)OC(=O)N[C@@H](Cc1ccccc1)C(=O)N1CCC(C(=O)N[C@@H](CCC(N)=O)C(=O)O)CC1`, for which the cell number change stood at 56.9%. In addition, the concentration at half-maximal activity (AC50) under setting [2] was 29.1 µM [rising, single point]. The AC50 under setting [1] was 6.51 µM [falling, single point].
On to `CCOc1ccc(S(=O)(=O)NCc2ccc3c(c2)OCO3)cc1`, for which the cell number change worked out at 20.8%. Besides, under setting [1], the AC50 was 29.1 µM [rising, single point].
Take `Cc1ccc(C(=O)NNC(=O)c2n[nH]c(=O)c3ccccc23)cc1C`: the cell number change amounted to 5.97%. Under setting [1], the AC50 was 13 µM [rising, partial curve].
For `Cn1c(=O)c2c(ncn2CC(COCc2ccc(Cl)cc2)OCc2ccc(Cl)cc2)n(C)c1=O` (stereo not drawn), the cell number change is -24.2%. In addition, the AC50 under setting [1] is 5.17 µM [rising, single point].
Regarding `COc1ccc(NC(=O)CCN2C(=O)c3ccc([N+](=O)[O-])cc3C2=O)c(OC)c1`, the cell number change came to 5.8%. For the same molecule, under setting [1], the AC50 was 32.6 µM [falling, single point].
For the molecule `CC1CCCC(C)N1C(=O)COC(=O)c1nn(C)c(=O)c2ccccc12` (stereo not drawn), the cell number change was -7.92%. In addition, the AC50 under setting [1] was 7.31 µM [falling, partial curve].
Turning to `O=S(=O)(c1cc(Cl)c(Cl)cc1Cl)N1CCN2CCCC2C1` (stereo not drawn), the cell number change stood at 10.8%. The half-maximal activity concentration (AC50) under setting [1] is 0.00461 µM [rising, full curve].
In the case of `Cc1ccccc1NC(=O)CN1C(=O)CSc2ccc(S(=O)(=O)N3CCCC3)cc21`, the cell number change came to 29.6%. In addition, under setting [2], the half-maximal activity concentration (AC50) was 0.146 µM [rising, full curve, poor fit].
`COC(=O)c1ccc(Oc2nc(N3CCCCC3)nc(N3CCOCC3)n2)cc1`: the cell number change was 107%. For the same molecule, the concentration at half-maximal activity (AC50) under setting [2] is 18.4 µM [rising, partial curve].
`CCn1ncc(Br)c1C(=O)Nc1ccc(C(C)C)cc1`: the cell number change was -37.4%. Besides, the AC50 under setting [2] was 20.6 µM [falling, single point].
On to `CCC1(C)Cc2c(C#N)c(N)n(N)c(=S)c2CO1` (stereo not drawn), for which the cell number change was determined as 29.5%.
On the same count and under the same terms, the same measure for `C=CCNc1nc(Cl)nc(Nc2ccc([N+](=O)[O-])cc2)n1`: -40.8%.
As for `COc1ccc(-c2nnc3ccc(SCC(=O)N4CCOCC4)nn23)cc1`, the AC50 under setting [1] was 3.66 µM [rising, partial curve].
As to `Cc1ccsc1/C=N\NC(=O)CCc1c(C)n[nH]c1C`, the cell number change was -43.4%. The half-maximal activity concentration (AC50) under setting [2] is 29.1 µM [falling, single point].
`CC#CCN(CC#CC)S(=O)(=O)c1ccc(-n2cnnn2)c(OC)c1`: the cell number change is -2.11%. Also, the half-maximal activity concentration (AC50) under setting [1] is 0.82 µM [rising, partial curve].
As to `COc1ccc(N2CCN(C(=O)COC(=O)CNC(=O)c3ccc(C)cc3)CC2)cc1`, the cell number change is -1.68%. The concentration at half-maximal activity (AC50) under setting [1] was 16.4 µM [falling, partial curve, poor fit].
For the molecule `CC(C)(C)c1ccc(C(=O)N2CCN(S(=O)(=O)c3ccc(Br)s3)CC2)cc1`, the cell number change is -24.5%. Moreover, the concentration at half-maximal activity (AC50) under setting [1] is 18.4 µM [falling, single point].
Take `CCc1ccccc1NCC(=O)Nc1ccc(Cl)c(C(F)(F)F)c1`: the cell number change was -79.5%. Moreover, the concentration at half-maximal activity (AC50) under setting [2] was 23.1 µM [falling, single point]. For the same molecule, the AC50 under setting [1] is 29.1 µM [falling, single point].
Consider `CC(C)Oc1cccc(C(=O)C2CCCN(C(=O)c3ccccn3)C2)c1` (stereo not drawn), for which the cell number change was 1.83%. The AC50 under setting [1] is 0.116 µM [rising, full curve].
Turning to `CCN(CC)CCn1c(=S)[nH]c2ncccc2c1=O`, the cell number change was -25.6%. Also, under setting [2], the concentration at half-maximal activity (AC50) was 0.092 µM [falling, full curve, poor fit]. The AC50 under setting [1] was 3.66 µM [falling, full curve].
Take `COc1cccc(-c2nc(CS(=O)CC(=O)NC3CCCC3)c(C)o2)c1` (stereo not drawn): the cell number change worked out at 34.7%. Also, the half-maximal activity concentration (AC50) under setting [2] is 2.06 µM [falling, partial curve]. In addition, the half-maximal activity concentration (AC50) under setting [1] was 0.103 µM [rising, full curve, poor fit].
In the case of `CCOc1ccc(CCNC(=O)C2CC(=O)N(c3ccccc3OCC)C2)cc1OCC` (stereo not drawn), the cell number change is -15.7%. In addition, the AC50 under setting [1] was 5.8 µM [rising, partial curve].
Consider `O=C(Nc1cccc(C(F)(F)F)c1)c1cc[n+]([O-])cc1`, for which the cell number change stood at 12.5%. Also, the AC50 under setting [1] is 0.146 µM [rising, full curve, poor fit].
For `CCC(=O)Nc1cc(-c2nc3ncccc3o2)ccc1Cl`, the cell number change was -6.76%.
`COc1ccccc1NC(=O)c1ccccc1C(=O)Nc1ccccc1OC`: the cell number change came to 10.9%. Moreover, under setting [2], the AC50 was 0.116 µM [rising, full curve, poor fit].
`CCN(C(=O)c1ccccc1Cl)c1ccccc1`: the AC50 under setting [1] is 0.146 µM [falling, full curve, poor fit].
As to `COc1ccc(C(=O)OC/C(O)=C(\C#N)c2nc3ccccc3[nH]2)cc1S(=O)(=O)N1CCOCC1`, the cell number change amounted to 32.1%. Also, the concentration at half-maximal activity (AC50) under setting [2] was 14.6 µM [rising, partial curve]. The AC50 under setting [1] is 29.1 µM [rising, single point].
As for `CCN(C(=O)CSc1nnc(-c2ccccc2Br)o1)C1CCS(=O)(=O)C1` (stereo not drawn), the cell number change was -7.13%. Under setting [2], the concentration at half-maximal activity (AC50) is 0.206 µM [falling, partial curve, poor fit]. Also, the AC50 under setting [1] is 0.231 µM [falling, partial curve, poor fit].
With `Cc1cc(C)nc(SCCC(=O)Nc2ccc(F)cc2)n1`, the cell number change was found to be 6.92%. Moreover, under setting [1], the AC50 was 16.4 µM [falling, partial curve].
Regarding `COCCCn1c(SCc2ccccc2)nc2cc(OC)c(OC)cc2c1=N`, the cell number change was -25.9%. For the same molecule, the half-maximal activity concentration (AC50) under setting [1] was 29.1 µM [falling, single point].
`CCCCNC(=O)NC12CC3CC(CC(C3)C1)C2`: the cell number change worked out at 2.94%. Further, under setting [1], the AC50 was 6.51 µM [rising, single point].
In the case of `CC(C)Cc1ccc(C(=O)NCc2ccc3c(c2)OCO3)o1`, the cell number change worked out at 29.1%. In addition, the half-maximal activity concentration (AC50) under setting [1] is 16.4 µM [rising, partial curve].
As for `Cc1cc(NC(=O)CSc2nnc(-c3c[nH]c4ccccc34)n2C)no1`, the cell number change is -14.3%. Further, the AC50 under setting [1] was 20.6 µM [falling, single point].
Take `O=C1CN(c2nc(-c3ccccc3)c3ccccc3n2)c2ccccc2N1`: the cell number change is 2.38%. Also, under setting [1], the AC50 was 2.31 µM [rising, single point].
With `Cc1ccc(S(=O)(=O)N2CCOCC(=O)NCCOCCNC(=O)COCC2)cc1`, the cell number change stood at 12.6%. The half-maximal activity concentration (AC50) under setting [1] was 0.82 µM [rising, full curve].
In the case of `Cn1c(=O)c2c(n(C)c1=O)=NC1(CCCCC1)ON=2`, the cell number change was -17.9%. In addition, the AC50 under setting [1] is 3.26 µM [falling, partial curve].
Consider `O=C(Nc1ccc(S(=O)(=O)Nc2ccccn2)cc1)c1cccc(Cl)c1`, for which the cell number change came to 19.2%.
Consider `O=C1CC(c2ccccc2Cl)=NN(c2ncnc3ccccc23)C1=O`, for which the cell number change was -44.6%. The concentration at half-maximal activity (AC50) under setting [1] was 7.31 µM [falling, partial curve, poor fit].
Consider `CCOc1ccccc1NC(=O)C(Sc1nnnn1C)c1ccccc1` (stereo not drawn), for which the half-maximal activity concentration (AC50) under setting [1] was 0.13 µM [falling, single point].
As for `Cn1c(C(=O)O)c(CC(=O)NCC2COc3ccccc3O2)c2ccccc21` (stereo not drawn), the cell number change was -7.13%. In addition, under setting [2], the concentration at half-maximal activity (AC50) was 6.51 µM [rising, single point].
Turning to `Cc1nn(S(=O)(=O)c2cccs2)c(C)c1Sc1ccccc1`, the cell number change was -54.3%. Besides, the AC50 under setting [2] is 1.64 µM [falling, partial curve].
Turning to `Cc1ccccc1C(=O)OC1OC(=O)C(Cl)=C1Nc1ccccc1` (stereo not drawn), the cell number change was 21.1%. The concentration at half-maximal activity (AC50) under setting [1] is 29.1 µM [falling, single point].
As for `CC(C)[C@H](NC(=O)c1ccco1)C(=O)N(C)Cc1ccc(C(F)(F)F)cc1`, the cell number change was -1.3%. In addition, the half-maximal activity concentration (AC50) under setting [1] is 29.1 µM [rising, partial curve, poor fit].
For the molecule `COc1cc(/C=C/C(=O)c2ccc3c(c2)OCO3)cc(Cl)c1O`, the cell number change is -89.5%. Also, under setting [2], the AC50 is 20.6 µM [falling, partial curve].
As to `CCN(CC)c1ccc(/C=C/c2cc(-c3ccccc3)c3ccccc3n2)cc1`, the cell number change was -45.8%. Further, under setting [2], the AC50 was 32.6 µM [falling, single point]. In addition, under setting [1], the half-maximal activity concentration (AC50) is 23.1 µM [falling, partial curve].
